Measured data: PubChem BioAssay AID1508588 (Peter MacCallum Cancer Centre, 2020)
The deposit covers about 18,000 reagents; shown is a random part of them. 790 of all reagents (4.4%) count as active. 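Calls rest on a combination of fold-change classes in drug and vehicle arms, not all shown here.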 Some reagents were tested in more than one well and are listed for each.

Screen: 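Which gene losses make BRAF-mutant melanoma cells more responsive to vemurafenib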 (primary screen)
System: human WM266.4 melanoma cells (BRAF V600 mutant)
Reagents: siRNA pool against human genes, 40 nM
Time to read-out: 96 h from transfection to read-out
Conditions: vemurafenib 300 nM (about IC25), added 48 h after transfection, for 48 h; comparison arm got DMSO vehicle only
Read-out: 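Cell gain (DAPI nuclei at end minus before drug, mean of two replicates) and medium lactate by absorbance per cell, both as ratio to non-targeting siRNA, also grouped into fold-change classes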
Direction: cell gain with vemurafenib: higher = more cell gain than with non-targeting siRNA; lactate per cell with vemurafenib: higher = more lactate made per cell
Hit rule: 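a knock-down counts as enhancing when its fold-change classes with vehicle and with vemurafenib, taken together, show a stronger drug effect on cell gain or lactate per cell; exact class pairs not stated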
Meaning of the calls: active = enhances vemurafenib effect; inactive = no enhancement seen

| Gene | PubChem SID | cell gain with vemurafenib | lactate per cell with vemurafenib | outcome |
| --- | --- | --- | --- | --- |
| LHCGR | SID135620722 | 0.57 | 0.44 | inactive |
| ACSM4 | SID135624626 | 1.15 | 0.84 | inactive |
| SLC6A3 | SID152151295 | 0.76 | 1.04 | inactive |
| E2F5 | SID135620648 | 0.9 | 0.58 | inactive |
| EPM2A | SID152147762 | 0.73 | 0.61 | inactive |
| SHFL | SID152149660 | 0.88 | 0.54 | inactive |
| ATP6V0D1 | SID152153447 | 0.47 | 1.8 | inactive |
| TTLL2 | SID152149528 | 0.46 | 0.86 | inactive |
| SERPINA5 | SID152154727 | 0.35 | 0.54 | inactive |
| GRIA1 | SID134311603 | 0.72 | 0.86 | inactive |
| NUP188 | SID152152869 | 0.45 | 0.84 | inactive |
| CYP4F3 | SID152150103 | 0.93 | 0.74 | inactive |
| EAF1 | SID152150489 | 0.26 | 1.01 | inactive |
| COXFA4 | SID134323007 | 0.87 | 1.38 | inactive |
| C6orf47 | SID152149134 | 0.58 | 1.57 | inactive |
| PRPH2 | SID135622054 | 0.05 | 2.91 | inactive |
| SCPEP1 | SID135621124 | 1.01 | 0.78 | inactive |
| GPR107 | SID152156433 | 1.03 | 0.98 | inactive |
| GPR143 | SID134311116 | 0.9 | 1 | inactive |
| OR1D4 | SID152148698 | 0.2 | 2.3 | inactive |
| SEMA3G | SID134324154 | 0.54 | 1.08 | inactive |
| VSNL1 | SID152150770 | 0.65 | 0.84 | inactive |
| IL9 | SID134312931 | 0.26 | 2.29 | inactive |
| SERPINA1 | SID152155288 | 0.7 | 0.86 | inactive |
| SIGLEC12 | SID134317655 | 0.46 | 0.88 | inactive |
| PLA2G4A | SID152150316 | 0.03 | 1.46 | inactive |
| CLDN17 | SID134323740 | 0.59 | 1.07 | inactive |
| INPP5F | SID135623984 | 0.62 | 0.86 | inactive |
| TRMT44 | SID134319584 | 0.37 | 1.18 | inactive |
| ZNF521 | SID134318151 | 0.85 | 0.63 | inactive |
| CD83 | SID152152861 | 0.7 | 1.1 | inactive |
| SPTLC3 | SID135621912 | 0.95 | 0.55 | inactive |
| OR10R2 | SID152146880 | 0.9 | 1.08 | inactive |
| ACACB | SID135620881 | 0.99 | 1.39 | inactive |
| BPIFB6 | SID134313625 | 0.57 | 1.42 | inactive |
| ACSL5 | SID134311734 | 0.85 | 0.89 | inactive |
| MBOAT1 | SID152151471 | 0.57 | 1.45 | inactive |
| GTPBP4 | SID152156465 | 0.62 | 0.73 | inactive |
| ENG | SID134315390 | 0.76 | 0.81 | inactive |
| COQ5 | SID134314471 | 0.34 | 1.23 | inactive |
| ADGRF3 | SID135621017 | 0.48 | 0.84 | inactive |
| KRT13 | SID152155816 | 0.6 | 0.91 | inactive |
| ZNF777 | SID135622627 | 0.11 | 1.83 | inactive |
| LINC00518 | SID134320250 | 0.91 | 0.68 | inactive |
| KLF16 | SID152152530 | -0.03 | 1.53 | inactive |
| PPEF1 | SID135621785 | 0.66 | 0.63 | inactive |
| ZNF878 | SID135625609 | 1.42 | 0.52 | inactive |
| RUFY3 | SID134324054 | 0.64 | 0.55 | inactive |
| OR6C4 | SID134329935 | 0.82 | 1.04 | inactive |
| DGKD | SID56479091 | 0.73 | 0.52 | inactive |
| OGFR | SID134322993 | -0.2 | 1.61 | inactive |
| ZFYVE19 | SID135623427 | 0.5 | 0.77 | inactive |
| CLDN6 | SID135623042 | 0.46 | 1.84 | inactive |
| CORO6 | SID135622864 | 0.82 | 1.21 | inactive |
| FOSL2 | SID134310275 | 0.26 | 1.5 | inactive |
| PLEKHA8 | SID134310394 | 0.26 | 1.24 | inactive |
| DNAJC5B | SID135623524 | 0.93 | 1 | inactive |
| TRIM8 | SID152155846 | 0.99 | 0.74 | inactive |
| NEURL1 | SID134320695 | 0.8 | 0.52 | inactive |
| SALL4 | SID134312156 | 0.78 | 1.91 | inactive |
| HNRNPUL2 | SID135625238 | 1.06 | 0.5 | inactive |
| NAP1L1 | SID152155760 | 0.63 | 0.78 | inactive |
| RMND5A | SID134319480 | 0.24 | 1.18 | inactive |
| MEDAG | SID134320345 | 0.83 | 0.88 | inactive |
| OSMR | SID152149852 | 0.59 | 0.88 | inactive |
| CXCL13 | SID134312811 | 0.87 | 0.62 | inactive |
| RORC | SID134309893 | 0.71 | 0.68 | active |
| POFUT4 | SID152155851 | -0.17 | 0.72 | inactive |
| BIN1 | SID134313129 | -0.09 | 2.4 | inactive |
| TM4SF18 | SID135623165 | 0.19 | 0.84 | inactive |
| SETD2 | SID152151866 | 0.59 | 0.94 | inactive |
| PANX3 | SID134319227 | 0.59 | 0.98 | inactive |
| SYNE4 | SID135623228 | 0.69 | 1.02 | inactive |
| RNF148 | SID134315249 | 0.97 | 0.64 | inactive |
| RNF148 | SID134315249 | 0.9 | 0.76 | inactive |
| ERCC6 | SID134310656 | 0.02 | 1.01 | inactive |
| PIAS1 | SID134313069 | 0.63 | 1.25 | inactive |
| OR4F17 | SID134329890 | 1.24 | 0.56 | inactive |
| GK2 | SID56479273 | 0.88 | 0.96 | inactive |
| SPEM1 | SID135625085 | 0.31 | 1.08 | inactive |
| BLVRA | SID134310113 | 0.54 | 1.13 | inactive |
| CLEC18B | SID135625385 | 1.13 | 0.88 | inactive |
| CNEP1R1 | SID152148190 | 0.62 | 0.52 | inactive |
| CD226 | SID134323901 | 0.59 | 0.93 | inactive |
| CEP41 | SID134314413 | 0.13 | 1.38 | inactive |
| PTPN7 | SID134313269 | 0.92 | 0.77 | inactive |
| RPL23 | SID135622572 | -0.1 | 0.41 | inactive |
| LTBP1 | SID135622062 | 0.22 | 1.49 | inactive |
| PWWP3B | SID152148263 | 0.49 | 1.22 | inactive |
| FRMD6 | SID135623143 | 0.68 | 0.39 | inactive |
| EVX1 | SID135622167 | 0.64 | 1.05 | inactive |
| MTX2 | SID135623910 | 0.57 | 0.8 | inactive |
| YME1L1 | SID134311522 | 0.66 | 0.79 | inactive |
| PRIMPOL | SID134320780 | 0.27 | 0.9 | inactive |
| ADCY2 | SID152148933 | 0.8 | 0.6 | inactive |
| NRXN1 | SID152155248 | 0.75 | 0.74 | inactive |
| RPAP2 | SID134318613 | 0.07 | 1.28 | inactive |
| TOR1A | SID152151445 | 0.64 | 1.2 | inactive |
| RASAL3 | SID152151909 | 0.52 | 0.8 | inactive |
| MEX3B | SID134325357 | 1.08 | 1.02 | inactive |
| MAF1 | SID152155098 | 0.32 | 2.12 | inactive |
| RTCA | SID135623768 | 0.6 | 1.05 | inactive |
| GDF15 | SID152153827 | 0.37 | 0.73 | inactive |
| ICOS | SID134316680 | 0.39 | 0.84 | inactive |
| DSCC1 | SID134318466 | 0.58 | 0.52 | inactive |
| RNASE9 | SID135625281 | 0.37 | 0.97 | inactive |
| HPSE2 | SID152152514 | -0.06 | 0.01 | active |

An excerpt of the results above, as a working copy:
| Gene | PubChem SID | cell gain with vemurafenib | lactate per cell with vemurafenib | outcome |
| --- | --- | --- | --- | --- |
| ZNF521 | SID134318151 | 0.85 | 0.63 | inactive |
| CD83 | SID152152861 | 0.7 | 1.1 | inactive |
| SPTLC3 | SID135621912 | 0.95 | 0.55 | inactive |
| OR10R2 | SID152146880 | 0.9 | 1.08 | inactive |
| ACACB | SID135620881 | 0.99 | 1.39 | inactive |
| BPIFB6 | SID134313625 | 0.57 | 1.42 | inactive |
| ACSL5 | SID134311734 | 0.85 | 0.89 | inactive |
